# PubChem BioAssay AID504804 | Drosophila RNAi Screening Center, 2011
# Aim: 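Knock-downs shielding fly cells from apoptosis caused by DNA damage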 (primary screen)
# Cell system: Drosophila Kc cells
# Reagents: long dsRNA against Drosophila genes, 0.5 µg dsRNA per well
# Timing: 96 h (48 h knock-down, then 48 h drug)
# Conditions: doxorubicin 5 µg/ml for 48 h, added 48 h after dsRNA
# Measurement: 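Luminescent ATP counts per replicate, not normalised, reflecting viable cells after 48 h dsRNA knock-down followed by 48 h of 5 µg/ml doxorubicin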
# Reading the numbers: raw ATP luminescence: higher = more viable cells, protection from doxorubicin
# Call rule: 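Active when both duplicate wells lie at least 2 SD above the plate mean and protection is confirmed by rescreening and independent dsRNAs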
# The deposit covers about 19,000 reagents; below is a random part of those with a known target gene and a result. Over the whole deposit, 47 (0.25%) are marked active. 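Signals are raw, not normalised; exact z-scores behind calls not deposited; actives needed confirmation, so some wells reaching 2 SD are inactive.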 Unmarked entries are inactive. The numbers tell different reagents against one gene apart.
gene knocked down,dsRNA no.,SD above plate mean,"raw ATP luminescence, replicate 1","raw ATP luminescence, replicate 2"
Dlc90F (GeneID 42199),1,,43077,48140
CenB1A (GeneID 42735),1,,69400,66060
CG9664 (GeneID 33540),1,,1.29e5,86340
CG15916 (GeneID 32549),1,,3.87e5,3.12e5
ms(3)K81 (GeneID 43232),1,,39710,41130
P5cr-2 (GeneID 42106),1,,66580,54640
Arms (GeneID 37433),1,,74703,62567
Arms (GeneID 37433),2,,71947,61067
Arms (GeneID 37433),3,,62397,53517
Arms (GeneID 37433),4,,51767,54190
PolE1 (GeneID 42758),1,,34723,30880
Rbf2 (GeneID 41941),1,,77650,77360
CG9588 (GeneID 41672),1,,66470,79800
CG42633 (GeneID 8674052),1,,51713,72213
CG10801 (GeneID 31314),1,,64310,50800
Adf1 (GeneID 47082),1,,85497,96427
Adf1 (GeneID 47082),2,,58210,48260
Bruce (GeneID 41260),1,,69570,45280
CG4752 (GeneID 37569),1,,21890,66707
TMEM216 (GeneID 41035),1,,68680,59613
Glo1 (GeneID 35656),1,,69930,76967
Gad1 (GeneID 38484),1,,43613,34153
Corin (GeneID 35691),1,,40297,70163
CG8202 (GeneID 41043),1,,68737,61167
Neurochondrin (GeneID 40796),1,,47190,23403
Ugt35E1 (GeneID 53504),1,,38060,52967
Vajk3 (GeneID 34812),1,,78457,53300
Fst (GeneID 41169),1,,84453,20767
Med (GeneID 43725),1,,13140,8760
CNMaR (GeneID 39127),1,,1.12e5,1.06e5
CNMaR (GeneID 39127),2,at least 3 SD above plate mean (active),1.27e5,1.62e5
WASp (GeneID 43402),1,,51200,44560
CG12229 (GeneID 39945),1,,38577,38920
mmy (GeneID 33903),1,,83087,63753
CG31882 (GeneID 319000),1,,2.75e5,3.29e5
botv (GeneID 37198),1,,69537,51363
ash2 (GeneID 42936),1,,60813,50057
Arl1 (GeneID 39745),1,2 to 3 SD above plate mean,1.13e5,94423
CG14309 (GeneID 42212),1,,60790,67260
CG15449 (GeneID 33079),1,,2.81e5,3.06e5
Afg3l2 (GeneID 39922),1,,24160,27280
dati (GeneID 43789),1,,55770,51790
Mst89B (GeneID 41972),1,,53860,81290
Ssl1 (GeneID 40509),1,,22973,16233
Rpt4R (GeneID 39351),1,,95503,73050
CG5823 (GeneID 42105),1,,53537,38090
CARPB (GeneID 31915),1,,3.58e5,3.71e5
CG2150 (GeneID 43745),1,,64830,76970
Cpr35B (GeneID 34846),1,,64760,88090
side-II (GeneID 3346206),1,,3.54e5,2.98e5
side-II (GeneID 3346206),2,,3.63e5,2.99e5
side-II (GeneID 3346206),3,,56367,66087
side-II (GeneID 3346206),4,,57617,90863
side-II (GeneID 3346206),5,,44920,81670
Diap1 (GeneID 39753),1,,6310,4850
CG11563 (GeneID 43735),1,,42540,38840
RpS13 (GeneID 34149),1,,26503,24527

Part of the list above, set out differently.
PolE1 (GeneID 42758)
- raw ATP luminescence, replicate 1: 34723
- raw ATP luminescence, replicate 2: 30880

Rbf2 (GeneID 41941)
- raw ATP luminescence, replicate 1: 77650
- raw ATP luminescence, replicate 2: 77360

CG9588 (GeneID 41672)
- raw ATP luminescence, replicate 1: 66470
- raw ATP luminescence, replicate 2: 79800

CG42633 (GeneID 8674052)
- raw ATP luminescence, replicate 1: 51713
- raw ATP luminescence, replicate 2: 72213

CG10801 (GeneID 31314)
- raw ATP luminescence, replicate 1: 64310
- raw ATP luminescence, replicate 2: 50800

Adf1 (GeneID 47082) #1
- raw ATP luminescence, replicate 1: 85497
- raw ATP luminescence, replicate 2: 96427

Adf1 (GeneID 47082) #2
- raw ATP luminescence, replicate 1: 58210
- raw ATP luminescence, replicate 2: 48260

Bruce (GeneID 41260)
- raw ATP luminescence, replicate 1: 69570
- raw ATP luminescence, replicate 2: 45280

CG4752 (GeneID 37569)
- raw ATP luminescence, replicate 1: 21890
- raw ATP luminescence, replicate 2: 66707
